Construct, isoform or probe ends are uncertain for at least one entry. For some of these results: At least one result comes from cells or an extract, where the contact may be indirect.
Assays:
[1] = target: MAFG (MAFG-Myc) (Homo sapiens) (UniProt O15525); assay: ELONA; conditions: protein in a lysate after overexpression; label: 5' digoxigenin; single-stranded DNA
[2] = target: MAFG (MAFG-Myc or endogenous in cells) (Homo sapiens) (UniProt O15525); assay: activity in cells; conditions: 25 nM transfected in H23R, CDDP resistance index 2.63 to 2.0; H1299 CDDP IC50 10 to 4.5 ug/ml; ROS increased; nuclear staining of cells by aptacytochemistry; protein in cells; single-stranded DNA

Sequence | binding result [1] | functional effect of the aptamer (resistance index) [2]
GCGGATGAAGACTGGTGTCGATGCATGTGTAGTGCATTTCGAGCCGTTCTATTGGTGTGCCCTAAATACGAGCAAC [apMAFG6F] | binds | 2
GCGGATGAAGACTGGTGTCGCGAACCGGGTTACTTTTGTCGCGGGTCGTCGGATCTGTGCCCTAAATACGAGCAAC [apMAFG11F] | binds | 
GCGGATGAAGACTGGTGTGCTGTGCTTTGACGACTGTCTAGTGGGTTTTCTTCCCCCGGCCCTAAATACGAGCAAC [apMAFG3F] | binds | 

Reference: patent US20200270310
